Results as given in PubChem BioAssay AID540256 (National Center for Advancing Translational Sciences (NCATS), 2011).
Screen size: about 300,000 compounds; about 3,700 (1.2%) were called active. This list was built around the results that the source calls inconclusive (neither active nor inactive); the mix of calls is not that of the screen. Calls follow the shape of the full dose curve; tested in HEK293 cells. A potency beside an inconclusive call is a rough fit, not a confirmed value.
% is scaled to controls: 0 for no effect and ±100 for the full control effect; potency is read from the fitted curve at half-maximal effect.

Assay: qHTS for Inhibitors of binding or entry into cells for Lassa Virus; also: nearly all actives have a fitted effect of over 50% in size
Conditions: Lassa virus pseudotype entry inhibition, cell reporter; activity change, negative = inhibition: at 37.9 µM (top of the series) unless noted
With `Cc1cccc(NC(=O)Cn2c(O)c(N=NC(=O)c3ccccc3O)c3ccccc32)c1` the Potency was inconclusive: 20 µM [inhibitor, single point].
With `Cc1cccc(N2CCN(CCCNC(=O)c3ccc(NC(=O)C4=CSCCO4)cc3)CC2C)c1` (stereo unspecified) the Potency was inconclusive: 35.5 µM [inhibitor, single point].
With `Cc1sc(NC(=O)c2ccco2)c(CN2CCC(C)CC2)c1C` the “activity change, negative = inhibition” value was inactive: -24.5%.
In the case of `COc1cccc(-c2nc(CS(=O)(=O)CC(=O)NCc3cccc(Cl)c3)c(C)o2)c1`, the “activity change, negative = inhibition” value is reported as inactive: 1.61% [at 46.1 µM].
In the case of `COc1ccccc1OCCNC(=O)c1c(-c2ccccc2Cl)noc1C`, the “activity change, negative = inhibition” value is reported as inactive: -5.4%.
In the case of `COCCNC(=O)c1cccc(OC2CCN(Cc3ccc(C(C)C)cc3)CC2)c1`, the “activity change, negative = inhibition” value is reported as inactive: -10.5% [at 46.1 µM].
For `CC1=C(c2ccc(F)cc2)S(=O)(=O)N=C1N1CCC(C(=O)NCCc2cccc(C)c2)CC1`, the “activity change, negative = inhibition” value was inactive: -7.41% [at 46.1 µM].
For `COc1ccc(OCC(=O)NC2CCCc3ccccc32)cc1` (stereo unspecified), the Potency was inconclusive: 35.5 µM [inhibitor, single point].
In the case of `Cc1ccc2c(c1)C1CN(C)CCC1N2C(=O)Nc1ccc(Cl)cc1` (stereo unspecified), the Potency is reported as inconclusive: 5.8 µM [activator, single point].
With `CCn1c(-c2nonc2N)nc2c(C#CC(C)(C)O)nc(OC(CN)c3ccccc3)cc21` (stereo unspecified) the Potency was active: 8.88 µM.
With `C/C(=N/NC(=S)Nc1ccccc1)c1ccc2c(c1)OCO2` the Potency was inconclusive: 7.08 µM [inhibitor, partial curve, poor fit].
For `COc1ccc(NC(=O)C23CCC(C)(C(=O)O2)C3(C)C)cc1` (stereo unspecified), the “activity change, negative = inhibition” value was inactive: 12.6%.
In the case of `COc1ccc(-c2cn3nc(N4CCCC(C(=O)NCc5ccc(Cl)cc5)C4)sc3n2)cc1` (stereo unspecified), the Potency is reported as inconclusive: 3.98 µM [activator, partial curve, poor fit].
For `COc1ccc(-n2ncc3c(=O)n(CC(=O)N4CCCc5ccccc54)cnc32)cc1`, the Potency was inconclusive: 23.1 µM [inhibitor, partial curve, poor fit].
With `CCOc1ccc(-n2c(Cc3ccccc3)nnc2SCc2c(C)noc2C)cc1` the Potency was inconclusive: 14.1 µM [inhibitor, single point].
With `COc1ccc([N+](=O)[O-])cc1NC(=O)C(C)OC(=O)Cc1ccc(OC)c(OC)c1` (stereo unspecified) the “activity change, negative = inhibition” value was inactive: -0.228%.
For `Nn1c(SCc2cn3ccsc3n2)nnc1-c1ccncc1`, the “activity change, negative = inhibition” value was inactive: 19.4%.
For `CCn1c(SCC(=O)Nc2ccc3c(c2)n(C)c(=O)n3C)nnc1-c1ccncc1`, the Potency was inconclusive: 0.282 µM [inhibitor, partial curve, poor fit].
With `CCc1ccc(/C=N/n2c(C)cc(C)c(C#N)c2=O)cc1` the “activity change, negative = inhibition” value was inactive: 6.33%.
With `CC1=C(C(=O)NCc2ccccc2F)C2(CCCCC2)OC1=O` the “activity change, negative = inhibition” value was inactive: -3.02% [at 46.1 µM].
For `CCC1=[N+](CC(=O)c2ccc(C)cc2)CCn2cccc21`, the “activity change, negative = inhibition” value was inactive: 0.243%.
For `Cc1ccc(Cn2c(SCCN3CCCCC3)nc3c2c(=O)n(C)c(=O)n3C)cc1`, the Potency was inconclusive: 6.31 µM [inhibitor, single point].
For `CCN(CC)CCNc1nc2c(c(=O)n(C)c(=O)n2C)n1C/C=C(/C)Cl`, the Potency was inconclusive: 8.91 µM [activator, partial curve, poor fit].
In the case of `Cc1ccn2c(Nc3ccc4c(c3)OCCO4)c(-c3ccc(C)o3)nc2c1`, the “activity change, negative = inhibition” value is reported as inactive: -5.66% [at 46.1 µM].
With `O=[N+]([O-])c1ccccc1NC1CCN(Cc2ccccc2)CC1` the Potency was inconclusive: 22.4 µM [inhibitor, single point].
For `O=[N+]([O-])c1cc(-c2ncccn2)c([N+](=O)[O-])s1`, the Potency was inconclusive: 18.4 µM [inhibitor, single point].
With `Cc1cc(OCC(=O)c2cccc(C(F)(F)F)c2)n2cnnc2n1` the “activity change, negative = inhibition” value was inactive: -0.803% [at 46.1 µM].
With `Cc1c(C(=O)NCc2ccccc2Cl)sc2ncnc(N(C)C3CCCCC3)c12` the Potency was inconclusive: 35.5 µM [inhibitor, single point].
In the case of `Cn1c(CN2CCCC2)nc2cc(NC(=O)COc3ccc([N+](=O)[O-])cc3)ccc21`, the “activity change, negative = inhibition” value is reported as inactive: 11.6%.
In the case of `CCc1ccc(NCc2nc3ccccc3c(=O)[nH]2)cc1`, the “activity change, negative = inhibition” value is reported as inactive: -12.9%.
For `Cc1ccccc1-c1nc(CN2CCC(C(=O)NCc3ccc(F)cc3)CC2)c(C)o1`, the “activity change, negative = inhibition” value was inactive: -11.9% [at 46.1 µM].
For `CCc1cccc(NC(=O)COc2ccccc2)c1`, the “activity change, negative = inhibition” value was inactive: -8.67%.
With `CCOC(=O)c1c(NC(=O)COC(=O)CNC(=O)c2ccco2)sc(C)c1C` the Potency was inconclusive: 0.708 µM [inhibitor, single point].
In the case of `Cc1ccc(NC(=O)CN2C(=O)c3cccnc3Oc3ccc(Cl)cc32)cc1`, the Potency is reported as inconclusive: 12.6 µM [inhibitor, partial curve, poor fit].
In the case of `COc1ccc(Cl)cc1NC(=O)CNc1ccccc1F`, the Potency is reported as inconclusive: 35.5 µM [inhibitor, partial curve, poor fit].
For `Nn1c(Nc2ccccc2)nc2sc3c(c2c1=O)CCC3`, the Potency was inconclusive: 14.1 µM [inhibitor, single point].
With `Cn1c(SCC(=O)NCC2COc3ccccc3O2)nnc1C(F)(F)F` (stereo unspecified) the “activity change, negative = inhibition” value was inactive: -6.57%.
For `CC(C)=C1C2CCC1C1C(=O)N(c3nc(-c4ccc(C(C)C)cc4)c(C)s3)C(=O)C21` (stereo unspecified), the Potency was inconclusive: 12.6 µM [inhibitor, partial curve, poor fit].
In the case of `Cc1cccc(CSc2nnc(CCCCCNC(=O)OC(C)(C)C)o2)c1`, the Potency is reported as inconclusive: 35.5 µM [inhibitor, partial curve, poor fit].
With `COc1ccc(Cn2ccnc2SCC(=O)Nc2nc3ccccc3s2)cc1` the “activity change, negative = inhibition” value was inactive: -9.07% [at 46.1 µM].
In the case of `N#Cc1cccc2c1-c1ccccc1/C2=N/NC(N)=S`, the Potency is reported as inconclusive: 15.8 µM [inhibitor, single point].
In the case of `Cc1cc(Cl)c2oc(C(=O)N3CCN(c4cccc(C)n4)CC3)c(C)c2c1`, the “activity change, negative = inhibition” value is reported as inactive: 15.6%.
With `Cc1cccc(N2C(=S)NC3c4ccccc4OC2(C)C3C(=O)N(C)C)c1` (stereo unspecified) the Potency was inconclusive: 1.26 µM [inhibitor, single point].
With `Cc1ccc(NC(=O)CSc2n[nH]c(-c3ccccn3)n2)cc1` the Potency was inconclusive: 11.2 µM [inhibitor, partial curve, poor fit].
In the case of `Cc1nc2ccccn2c(=O)c1NC(=O)c1ccc(F)c(F)c1`, the “activity change, negative = inhibition” value is reported as inactive: 25% [at 46.1 µM].
With `O=C(CCC(=O)c1cccs1)NCc1ccccc1Cl` the “activity change, negative = inhibition” value was inactive: 5.45%.
In the case of `O=C(Nc1cc(C(F)(F)F)ccc1Cl)c1cc2nc3c(c(C(F)(F)F)n2n1)CCCC3`, the Potency is reported as inconclusive: 1.12 µM [activator, full curve, poor fit].
For `COc1cc(OC)cc(C(=O)Nc2ccc(C(=O)NCC3CCCO3)cc2)c1` (stereo unspecified), the “activity change, negative = inhibition” value was inactive: -0.0017%.
In the case of `Cc1ccc2occ(/C=N/NC(=O)[C@@H](N)Cc3ccccc3)c(=O)c2c1`, the “activity change, negative = inhibition” value is reported as inactive: 1.23%.
With `CCOc1cc(N2CCOCC2)c(OCC)cc1NC(=O)COc1cccc(Cl)c1` the “activity change, negative = inhibition” value was inactive: -6.69%.
For `COc1ccc(Br)cc1CNC(=O)c1cnc2sc(N3CCC(C)CC3)nn2c1=O`, the Potency was inconclusive: 17.8 µM [activator, partial curve, poor fit].
With `Cc1ccc(C)c(N2CCN(S(=O)(=O)c3cc(C(=O)Nc4ccc(Oc5ccccc5)cc4)ccc3F)CC2)c1` the “activity change, negative = inhibition” value was inactive: 12.2% [at 46.1 µM].
For `COc1ccc(C(C)=O)cc1COC(=O)Cc1cc(OC)c(OC)c(OC)c1`, the “activity change, negative = inhibition” value was inactive: -4.63% [at 46.1 µM].
In the case of `O=C(N/C(=C/c1cccc(Br)c1)c1nc(=S)[nH][nH]1)c1ccccc1`, the Potency is reported as inconclusive: 0.631 µM [inhibitor, single point].
For `CCCn1c(C)cc(C(=O)COc2ccc(S(=O)(=O)N(CC)CC)cc2[N+](=O)[O-])c1C`, the Potency was inconclusive: 29.1 µM [inhibitor, single point].
In the case of `Cc1nc2c(ccc3nc(NC(=O)C4CC4)sc32)s1`, the Potency is reported as inconclusive: 6.31 µM [inhibitor, full curve, poor fit].
In the case of `CCOC(=O)c1c(NC(C)=O)sc2c1CCC(C=NCCCN(CC)CC)=C2Sc1ccccc1`, the Potency is reported as inconclusive: 35.5 µM [inhibitor, single point].
In the case of `COc1ccc(-c2cc(COc3ccccc3)on2)cc1`, the Potency is reported as inconclusive: 12.6 µM [activator, single point].
With `COc1ccc(CC(=O)N/N=C(\C)c2ccccn2)cc1` the Potency was inconclusive: 1.41 µM [inhibitor, partial curve].
For `O=C(c1ccccc1)c1cc(-c2ccccc2)on1`, the “activity change, negative = inhibition” value was inactive: -16.6%.
In the case of `Cc1ccc(S(=O)(=O)NC(Cc2ccccc2)C(=O)NN)cc1` (stereo unspecified), the Potency is reported as inconclusive: 5.62 µM [inhibitor, partial curve].
For `c1ccc(COc2ccc(Nc3ncnc4ccc(-c5ccco5)cc34)cc2)cc1`, the Potency was inconclusive: 31.5 µM [inhibitor, single point].
For `CCc1ccc(C2=NN(C(=O)OC)C(O)(C(F)(F)F)C2)cc1` (stereo unspecified), the Potency was inconclusive: 8.2 µM [inhibitor, partial curve, poor fit].
In the case of `COc1ccccc1OCCNC(=O)c1ccc(Br)cc1`, the “activity change, negative = inhibition” value is reported as inactive: -1.39% [at 46.1 µM].
For `Clc1ccc2nc(-c3ccc(N4CCOCC4)cc3)c(Nc3ccccc3)n2c1`, the Potency was inconclusive: 1 µM [activator, partial curve, poor fit].
In the case of `CC1(CC(=O)N/N=C/c2ccc(-c3cccc(C(F)(F)F)c3)o2)OCCO1`, the Potency is reported as inconclusive: 18.4 µM [inhibitor, single point].
For `CCCCCCNC(=O)CCCCCNS(=O)(=O)c1ccc(OC)cc1`, the Potency was inconclusive: 14.6 µM [inhibitor, partial curve, poor fit].
For `CC(C)OC(=O)Cn1nnc2c(cnn2-c2ccccc2)c1=O`, the “activity change, negative = inhibition” value was inactive: 27.5%.
For `O=S(=O)(c1ccccc1)c1nc(-c2ccco2)oc1Nc1ccccc1`, the Potency was inconclusive: 35.5 µM [inhibitor, single point].
With `O=C(Cc1ccccc1[N+](=O)[O-])NCc1ccc(Cl)cc1Cl` the Potency was inconclusive: 35.5 µM [inhibitor, single point].
With `Cc1cc(/C=N/n2cnnc2)c(C)n1-c1ccc(OCc2ccc(F)cc2)cc1` the Potency was inconclusive: 29.1 µM [inhibitor, single point].
